Measurements reported in PubChem BioAssay AID743121 (NCATS, 2013)
Test: 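Genes whose silencing strengthens cell killing by camptothecin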 (primary screen). Cell system: MDA-MB-231 cells, a human breast cancer line. Reagent: single siRNA against human genes, 20 nM siRNA (0.8 pmol per well). Timing: 120 h (drug added 48 h after transfection, read 72 h later). Challenge: camptothecin 20 nM (about EC30) for 72 h; vehicle 0.1% DMSO in parallel plates. Measurement: 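Cell viability by ATP luminescence (CellTiter-Glo) as % of non-targeting siRNA wells, and the log2 ratio of viability without drug over viability with camptothecin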. Reading the numbers: log2 vehicle/camptothecin viability: higher = stronger sensitisation to camptothecin; viability with camptothecin: higher = more viable cells. Units: viability with camptothecin in % of control. Active means: 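Active genes have an RSA gene-level p-value below 0.001, computed from the ratios of their separate siRNAs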.
In all, the deposit lists about 26,000 reagents; below is a part drawn at random. 167 of them (0.63%) count as active. 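Calls are per gene from RSA p-values that are not deposited; an individual active-marked siRNA can sensitise only weakly.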 Entries without a mark were called inactive. The numbers tell different reagents against one gene apart. Not all columns of the deposit are shown. Reagent sequences are not shown.

For PLK5 #1 the deposit lists log2 vehicle/camptothecin viability -0.072; viability with camptothecin 29.1.
Knock-down of PLK5 #2 came out at: log2 vehicle/camptothecin viability 1.34; viability with camptothecin 29.4.
PLK5 #3 scored log2 vehicle/camptothecin viability -0.788; viability with camptothecin 59.9.
Against PLK5 #4 the deposit lists log2 vehicle/camptothecin viability -0.159; viability with camptothecin 83.1.
Depletion of GAA #1 gave: log2 vehicle/camptothecin viability 0.251; viability with camptothecin 56.4.
GAA #2 gave log2 vehicle/camptothecin viability -0.162; viability with camptothecin 103.
GAA #3 scored log2 vehicle/camptothecin viability -0.177; viability with camptothecin 72.8.
GAA #4 gave log2 vehicle/camptothecin viability -0.0458; viability with camptothecin 106.
COQ8A #1 scored log2 vehicle/camptothecin viability -0.153; viability with camptothecin 124.
For COQ8A #2 the deposit lists log2 vehicle/camptothecin viability -0.105; viability with camptothecin 100.
COQ8A #3 gave log2 vehicle/camptothecin viability 0.399; viability with camptothecin 38.4.
Depletion of COQ8A #4 gave: log2 vehicle/camptothecin viability -0.147; viability with camptothecin 90.
DGKE #1 showed log2 vehicle/camptothecin viability 0.131; viability with camptothecin 84.5.
With knock-down of DGKE #2 the results were log2 vehicle/camptothecin viability -0.101; viability with camptothecin 37.7.
Against DGKE #3, the values are log2 vehicle/camptothecin viability -0.159; viability with camptothecin 83.4.
Against DGKE #4, the entry reads log2 vehicle/camptothecin viability -0.505; viability with camptothecin 50.6.
For ITPKB #1, the entry reads log2 vehicle/camptothecin viability 0.296; viability with camptothecin 54.1.
Silencing of ITPKB #2 came out at: log2 vehicle/camptothecin viability 0.658; viability with camptothecin 51.6.
After knock-down of ITPKB #3 the results were log2 vehicle/camptothecin viability -0.00841; viability with camptothecin 72.1.
For ITPKB #4, the entry reads log2 vehicle/camptothecin viability -0.00846; viability with camptothecin 95.3.
PHF19 #1 scored log2 vehicle/camptothecin viability -0.191; viability with camptothecin 101.
PHF19 #2 scored log2 vehicle/camptothecin viability -0.124; viability with camptothecin 93.8.
For PHF19 #3, the entry reads log2 vehicle/camptothecin viability -0.15; viability with camptothecin 75.1.
After knock-down of PHF19 #4, the record shows log2 vehicle/camptothecin viability -0.563; viability with camptothecin 85.5.
For MELTF #1, the values are log2 vehicle/camptothecin viability -0.0828; viability with camptothecin 74.7.
Knock-down of MELTF #2 came out at: log2 vehicle/camptothecin viability -0.347; viability with camptothecin 99.7.
After knock-down of MELTF #3, the screen gave log2 vehicle/camptothecin viability -0.487; viability with camptothecin 58.1.
Silencing of MELTF #4 came out at: log2 vehicle/camptothecin viability -0.26; viability with camptothecin 111.
Depletion of MELTF #5 came out at: log2 vehicle/camptothecin viability -0.159; viability with camptothecin 65.7.
MELTF #6 gave log2 vehicle/camptothecin viability -0.0283; viability with camptothecin 88.5.
After knock-down of MELTF #7, the record shows log2 vehicle/camptothecin viability -0.332; viability with camptothecin 65.4.
Against MELTF #8, the values are log2 vehicle/camptothecin viability -0.369; viability with camptothecin 77.1.
Knock-down of GMDS #1 resulted in: log2 vehicle/camptothecin viability -0.283; viability with camptothecin 76.7.
Depletion of GMDS #2 gave: log2 vehicle/camptothecin viability -0.223; viability with camptothecin 109.
Knock-down of GMDS #3 came out at: log2 vehicle/camptothecin viability -0.436; viability with camptothecin 61.5.
GMDS #4 gave log2 vehicle/camptothecin viability 0.138; viability with camptothecin 89.
